These are yes or no findings as the source states them, for the method shown. Binding seen in cells or lysates may run through a third protein. Some entries that bind do so weakly or less than the wild type. Where a sequence is shown, tags or fusion partners need not be part of it.
Biological target: T1, His-V5-tagged human FRABIN (human) (UniProt Q96M96)
T1 sequence: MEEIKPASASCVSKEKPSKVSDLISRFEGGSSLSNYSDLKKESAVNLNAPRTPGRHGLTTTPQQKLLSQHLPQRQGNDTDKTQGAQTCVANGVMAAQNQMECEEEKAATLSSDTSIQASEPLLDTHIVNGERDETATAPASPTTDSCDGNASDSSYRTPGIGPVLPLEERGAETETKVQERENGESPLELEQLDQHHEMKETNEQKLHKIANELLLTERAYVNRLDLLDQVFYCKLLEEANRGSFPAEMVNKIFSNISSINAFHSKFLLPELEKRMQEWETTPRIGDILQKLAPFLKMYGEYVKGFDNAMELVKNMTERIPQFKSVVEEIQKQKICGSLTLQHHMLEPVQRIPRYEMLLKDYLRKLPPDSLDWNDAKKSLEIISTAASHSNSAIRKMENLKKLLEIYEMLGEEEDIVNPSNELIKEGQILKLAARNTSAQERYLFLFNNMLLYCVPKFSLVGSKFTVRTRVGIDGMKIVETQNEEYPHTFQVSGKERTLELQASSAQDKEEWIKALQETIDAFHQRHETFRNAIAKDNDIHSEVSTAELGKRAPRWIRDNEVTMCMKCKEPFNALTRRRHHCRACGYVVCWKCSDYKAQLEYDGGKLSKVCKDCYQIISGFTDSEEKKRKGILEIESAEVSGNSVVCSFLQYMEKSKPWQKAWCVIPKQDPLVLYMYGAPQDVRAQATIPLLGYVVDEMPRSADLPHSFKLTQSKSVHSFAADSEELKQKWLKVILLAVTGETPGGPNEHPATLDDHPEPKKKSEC
Assay: co-IP

Sequences of proteins named here, by UniProt entry; tags and fusion partners are left off.
UniProt O60493: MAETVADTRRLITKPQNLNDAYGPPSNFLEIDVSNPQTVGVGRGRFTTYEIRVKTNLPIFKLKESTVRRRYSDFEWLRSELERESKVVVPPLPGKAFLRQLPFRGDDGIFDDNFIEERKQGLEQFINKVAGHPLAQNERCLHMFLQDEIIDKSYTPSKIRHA

binding: binds
Substance: SNX3 in HEK293 lysate (from UniProt O60493 1-162)
